# Data taken from PubChem BioAssay AID720551 (National Center for Advancing Translational Sciences (NCATS), 2013).
# By UniProt entry, the sequences of proteins in these tests, tags left out. Where a name states a change or a piece, a line headed by the entry shows the natural chain unless it says otherwise.
# UniProt Q12809: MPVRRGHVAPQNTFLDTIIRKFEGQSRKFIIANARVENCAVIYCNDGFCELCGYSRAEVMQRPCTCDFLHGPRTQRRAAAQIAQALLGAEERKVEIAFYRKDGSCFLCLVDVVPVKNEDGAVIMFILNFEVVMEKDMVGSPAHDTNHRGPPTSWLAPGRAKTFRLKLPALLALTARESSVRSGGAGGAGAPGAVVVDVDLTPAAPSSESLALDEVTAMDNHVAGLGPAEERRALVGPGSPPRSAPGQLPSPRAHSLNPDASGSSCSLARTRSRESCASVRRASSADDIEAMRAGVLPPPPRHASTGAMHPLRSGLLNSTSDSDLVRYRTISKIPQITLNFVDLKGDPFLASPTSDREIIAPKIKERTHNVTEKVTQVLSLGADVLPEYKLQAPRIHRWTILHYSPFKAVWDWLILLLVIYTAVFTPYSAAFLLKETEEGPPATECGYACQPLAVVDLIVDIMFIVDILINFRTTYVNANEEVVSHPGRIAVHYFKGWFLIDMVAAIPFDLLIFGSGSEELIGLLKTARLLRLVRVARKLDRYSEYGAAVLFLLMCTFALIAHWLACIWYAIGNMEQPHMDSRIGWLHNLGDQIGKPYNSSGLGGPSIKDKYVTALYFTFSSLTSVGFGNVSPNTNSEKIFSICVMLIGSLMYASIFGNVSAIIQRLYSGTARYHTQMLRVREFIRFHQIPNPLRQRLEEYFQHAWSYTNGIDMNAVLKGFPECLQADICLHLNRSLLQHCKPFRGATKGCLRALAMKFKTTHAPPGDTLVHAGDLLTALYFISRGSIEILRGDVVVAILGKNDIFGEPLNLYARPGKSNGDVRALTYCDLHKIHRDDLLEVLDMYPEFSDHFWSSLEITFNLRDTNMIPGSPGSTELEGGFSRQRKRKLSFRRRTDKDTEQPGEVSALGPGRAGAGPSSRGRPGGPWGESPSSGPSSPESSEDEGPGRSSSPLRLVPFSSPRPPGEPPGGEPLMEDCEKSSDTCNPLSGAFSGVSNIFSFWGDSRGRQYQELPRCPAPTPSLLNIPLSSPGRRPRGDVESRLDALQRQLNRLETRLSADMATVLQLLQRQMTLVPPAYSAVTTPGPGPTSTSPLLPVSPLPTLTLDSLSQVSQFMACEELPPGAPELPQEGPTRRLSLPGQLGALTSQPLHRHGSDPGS
# Out of some 340,000 compounds screened, about 1,300 (0.38%) were called active. The inconclusive results got no clear call from the source; some entries with a clear call stand among them for comparison.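 Rule for the calls: active = maximum activity change below -70%; inconclusive = maximum activity change between -70% and -50%; inactive = maximum activity change above -50%.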
# Target: Voltage-gated inwardly rectifying potassium channel KCNH2 (Homo sapiens) (UniProt Q12809)
# Experiment: qHTS for Inhibitors of KCHN2 3.1: Wildtype qHTS
# Settings: U2OS, BacMam KCNH2, thallium flux FluxOr; at 1.84 µM, active compounds read low
# Excerpt: Many antipsychotic drugs that inhibit the neurotransmitter dopamine also bind to hERG1 channel which might help explain their antipsychotic activity but also produces cardiac side effects. The discovery of the novel KCNH2 3.1 isoform offers a potential new target for the development of antipsychotic drugs without cardiac side effects. This proposal will use a high throughput thallium flux assay developed for KCNH2 to screen compounds that modulate the activity of KCNH2 3.1. The wild type KCNH2 channel will also be screened in parallel to help define the selective modulators of this KCNH2 3.1 potassium channel. The resulting compounds will be validated in electrophysiology experiments. The availability of animal models will allow future testing in vivo for effects on memory and other aspects of animal physiology linked with psychosis. NIH Chemical Genomics Center [NCGC] NIH Molecular Libraries Probe Centers Network [MLPCN] MLPCN Grant: MH096539 Assay Submitter (PI): James Barrow, Johns Hopkins University, Lieber Institute for Brain Development
# U2OS cells were resuspended in cell media containing 10% fetal calf serum (FCS) at a concentration of 2 million cells / mL. The solution was treated with the Wild-type virus at 2.03 x 10^8 / mL and allowed to incubate at room temperature in the dark. After 4 hours of incubation, DMEM + 10% fetal bovine serum (FBS) was added to the cell solution. Three microliter was then dispensed into a 1536 tissue culture treated black assay plates which were incubated overnight at 37 C. Two microliter of loading buffer (HBSS + HEPES + Red40 dye quencher + FluxOr dye) was added and the assay plates were incubated for 45 min at room temperature in the dark. […] A stimulation buffer was added to the plate and the second kinetic read (2 min) was obtained. The rate constant was calculated from the kinetic reads and normalized to the positive and negative DMSO controls.
# % is set by controls: 0 for no effect and ±100 for the full control effect.
row,Structure (SMILES),activity change
1,CN1C(=O)[C@H]2[C@@H](c3ccccc3)N[C@]3(CCCN(Cc4ccc(F)cc4)C3=O)[C@H]2C1=O,inactive: 5.13%
2,COc1ccccc1C1c2[nH]c3ccccc3c2C[C@H]2C(=O)N(C3CCN(Cc4ccccc4)CC3)CC(=O)N12 (stereo not given in full),active: -106%
3,COc1cc(Cl)ccc1NC(=S)N(CCN1CCOCC1)C1CCN(C(C)=O)CC1,inactive: 2.8%
4,C=CCNC(=O)c1ccc(CN(c2ccc(OCC)cc2)S(=O)(=O)c2ccc(C)cc2)cc1,inconclusive: -67.6%
5,Cc1ccc(N(CC(=O)NC(C)(C)C)C(=O)CNC(=O)c2cccs2)cc1,inconclusive: -61.8%
6,O=C(NC1c2ccccc2Oc2ccccc21)c1ccc([N+](=O)[O-])cc1,inconclusive: -55.3%
7,Nc1nnc(-c2cccc([N+](=O)[O-])c2)o1,active: -92%
8,O=C(NC(=S)Nc1ccccc1Br)c1ccc2c(c1)OCO2,inconclusive: -60.5%
9,N#Cc1ccc(OCC(O)CN2CCN(CC(O)COc3ccc(C#N)cc3)CC2)cc1 (stereo not given),active: -147%
10,Cn1c(=O)c2c(-c3ccccc3)n(-c3ccccc3N)cc2n(C)c1=O,inconclusive: -51%
11,Cc1cc(=O)n2nc(N3CCC(C(=O)NC(C)c4ccccc4)CC3)sc2n1 (stereo not given),inconclusive: -62.8%
12,CCc1ccc2c(c1)Sc1ccccc1CC2N1CCN(C)CC1 (stereo not given),inconclusive: -55.6%
13,CC(C)[C@H](NC(=O)c1ccc(F)cc1)C(=O)NC1=NCCS1,inconclusive: -54%
14,COc1ccc(CN2C3CCCC2CC(NC(=O)Nc2cccc(C)c2)C3)cc1 (stereo not given),active: -87.2%
15,O=C(CNC(=O)c1ccc(OC(F)F)cc1)NCc1ccccn1,inconclusive: -68.7%
16,O=C(NCCCn1ccnc1)c1c(F)cccc1F,inconclusive: -55.8%
17,O=C(Nc1ccccc1)N1CCC(O)(c2cccc(C(F)(F)F)c2)CC1,inconclusive: -60.7%
18,Cc1cc(N2CCN(S(=O)(=O)c3ccc(Cl)c(Cl)c3)CC2)c2ccccc2n1,inconclusive: -53.5%
19,O=C(/C=C/c1ccc(Cl)cc1Cl)N1CCN(c2ccccc2[N+](=O)[O-])CC1,inconclusive: -55.2%
20,CCc1ccc(-n2cc(-c3ccc([N+](=O)[O-])cc3)[nH]c2=S)cc1,inconclusive: -60.8%
21,CCN(c1ccccc1)S(=O)(=O)c1ccc(OC)c(NC(=O)CCc2nc3ccccc3c(=O)[nH]2)c1,inactive: 3.19%
22,COc1ccc(S(=O)(=O)N2CCCCC2)cc1C(=O)N1CCCC1,active: -70.1%

# 2 entries from above, set out differently.
row	Structure (SMILES)	activity change
10	Cn1c(=O)c2c(-c3ccccc3)n(-c3ccccc3N)cc2n(C)c1=O	inconclusive: -51%
22	COc1ccc(S(=O)(=O)N2CCCCC2)cc1C(=O)N1CCCC1	active: -70.1%

# (listing goes on)

row,Structure (SMILES),activity change
1,O=[N+]([O-])c1ccc(/C=C/C2=NN(c3ccccc3)C(c3ccco3)C2)cc1 (stereo not given),inconclusive: -54.2%
2,Cc1c(CCC(=O)O)c(=O)n2c([nH]c3ccccc32)c1C#N,inconclusive: -56.6%
3,CCCn1ncc(CN2CCC(n3nccc3NC(=O)c3ccccc3OC)CC2)c1C,inconclusive: -50.1%
4,Cc1cccc(NC(=O)CN2C(=O)CCS(=O)(=O)c3ccccc32)c1C,inconclusive: -63.7%
5,COc1ccc(-c2cn(-c3ccc(Br)cc3)c3[n+]2CCS3)cc1,inactive: 4.12%
6,COC1=CC(=Cc2c(N)n3nc(CC(=O)N4CCCCC4)sc3nc2=O)C=C(OC)C1=O,active: -70.5%
7,O=c1ccc2c(-c3ccccc3)c3ccc(O)cc3oc-2c1,inconclusive: -64%
8,Cc1ccc(Nc2nc(N)nc(CN3CCN(Cc4ccc5c(c4)OCO5)CC3)n2)cc1C,inconclusive: -52.4%
9,CC(C)(C)c1ccc(C(=O)N2CCN(Cc3ccccc3)CC2)cc1,inconclusive: -52.1%
10,Cc1ccc(NC(=S)NC(=O)c2ccc(Br)o2)c(C)c1,inconclusive: -55.8%
11,COc1ccc(C(=O)NCCS(=O)(=O)N2CCCC2)cc1,inactive: -5.84%
12,Cc1ccc(C(=O)CSc2nc(-c3ccccc3)cc(=O)[nH]2)cc1,active: -91.4%
13,CCOc1ccc(NC(=O)CN2CCN(CC(=O)Nc3ccc4c(c3)OCO4)CC2)cc1,active: -120%
14,CNc1nc2ccccc2n1/N=C/c1cccc(OC)c1OC,inconclusive: -52.3%
15,O=C(CN(Cc1ccccc1)C(=O)c1cc2c(s1)CCC2)NCc1cccs1,inactive: 5.25%
16,CN(C)CCNc1ncnc2c1sc1nc(-c3ccccc3)c3c(c12)CCCC3,inactive: 1.91%
17,COc1ccc(NC(=O)NC2CCCCCCC2)cc1,inconclusive: -56.8%
18,O=[N+]([O-])c1cc(-c2cnc3ccccc3n2)ccc1Oc1ccc(Cl)cc1,inconclusive: -64.5%
19,CCN(CC)c1ccc2nc3c4ccccc4c(=O)cc-3oc2c1,inactive: -3.14%
20,COCCCN1CCN(C2Cc3ccccc3Sc3ccc(Cl)cc32)CC1 (stereo not given),inconclusive: -58.6%
21,COc1ccc(C(=O)N/C(=C\c2cn(C)c3ccccc23)C(=O)N2CCN(C)CC2)cc1OC,inactive: -4.27%
22,CCCCOc1ccc(Cc2c(COCC)[nH]c(=S)[nH]c2=O)cc1,inactive: -6.17%

# Gathered by group, the compounds so far with an aryl methoxy group (11)
row,Structure (SMILES),activity change
2,COc1ccccc1C1c2[nH]c3ccccc3c2C[C@H]2C(=O)N(C3CCN(Cc4ccccc4)CC3)CC(=O)N12 (stereo not given in full),active: -106%
3,COc1cc(Cl)ccc1NC(=S)N(CCN1CCOCC1)C1CCN(C(C)=O)CC1,inactive: 2.8%
14,COc1ccc(CN2C3CCCC2CC(NC(=O)Nc2cccc(C)c2)C3)cc1 (stereo not given),active: -87.2%
21,CCN(c1ccccc1)S(=O)(=O)c1ccc(OC)c(NC(=O)CCc2nc3ccccc3c(=O)[nH]2)c1,inactive: 3.19%
22,COc1ccc(S(=O)(=O)N2CCCCC2)cc1C(=O)N1CCCC1,active: -70.1%
3,CCCn1ncc(CN2CCC(n3nccc3NC(=O)c3ccccc3OC)CC2)c1C,inconclusive: -50.1%
5,COc1ccc(-c2cn(-c3ccc(Br)cc3)c3[n+]2CCS3)cc1,inactive: 4.12%
11,COc1ccc(C(=O)NCCS(=O)(=O)N2CCCC2)cc1,inactive: -5.84%
14,CNc1nc2ccccc2n1/N=C/c1cccc(OC)c1OC,inconclusive: -52.3%
17,COc1ccc(NC(=O)NC2CCCCCCC2)cc1,inconclusive: -56.8%
21,COc1ccc(C(=O)N/C(=C\c2cn(C)c3ccccc23)C(=O)N2CCN(C)CC2)cc1OC,inactive: -4.27%

# The list continues:

row,Structure (SMILES),activity change
1,Cc1ccc(S(=O)(=O)Nc2c(C)cc(C)nc2Cl)cc1,inconclusive: -69.3%
2,CCOc1ccc(CCN2C(=S)N([C@@H](CC(C)C)CN3CCCC3CN3C(=S)NC[C@@H]3CC(C)C)C[C@@H]2Cc2ccc(O)cc2)cc1 (stereo not given in full),inconclusive: -65.3%
3,O=C(Nc1ccc2c(c1)OCO2)C1CCCN(S(=O)(=O)Cc2ccccc2)C1 (stereo not given),inconclusive: -51.3%
4,Fc1c(CSC(=S)N2CCOCC2)cccc1CSC(=S)N1CCOCC1,active: -152%
5,CC(=O)Nc1c(O)nc(SCC(=O)Nc2sc3c(c2C#N)CCCCCC3)[nH]c1=O,inconclusive: -54.6%
6,O=C(O)c1cc2c(cc1NC(=O)c1c(F)cccc1F)OCCCO2,inactive: -16.7%
7,CCN1C(=O)C(CC(=O)Nc2ccc(C)cc2C)Nc2cc(S(=O)(=O)N(C)C)ccc21 (stereo not given),inconclusive: -50.4%
8,O=C(NCc1cccnc1)c1ccc(S(=O)(=O)N2CCOCC2)cc1,inactive: 6.1%
9,CC(=O)c1ccc(N2CCN(C(=O)c3nn(Cc4ccccc4)c(=O)c4ccccc34)CC2)cc1,inconclusive: -66.7%
10,CC(=O)N1CC(=O)N=C1SCC(=O)Nc1nc(-c2ccccc2)c(-c2ccccc2)s1,inconclusive: -63.4%
11,NCC(c1ccccc1)c1c[nH]c2ccccc12 (stereo not given),inactive: -3.69%
12,CCOc1ccc2nc(N(CCN(C)C)C(=O)c3cc4ccccc4cc3OC)sc2c1,inconclusive: -50.7%
13,NC1(CO)COC(c2ccccc2)OC1 (stereo not given),inconclusive: -53%
14,Nc1nc(-c2cccs2)c(-c2cccs2)s1,inconclusive: -53.8%
15,CCOC(=O)c1c(NC(=O)CCC(=O)N(CC)CC)sc2c1CC(C)(C)OC2,inconclusive: -53.7%
16,CCCC(=O)N1CCN(c2ccc(NC(=O)c3cc4ccccc4o3)cc2Cl)CC1,inconclusive: -59.2%
17,CC1=CC(=O)C(C(C)C)=C/C1=N\OC(=O)c1cccc2nc(C)oc12,inactive: 8.36%
18,COc1cccc(/C=N/NC(=O)N/N=C/c2cccc(OC)c2O)c1O,inactive: 14.6%
19,COc1ccc(C)cc1NC(=O)c1ccc(OC(F)F)cc1,inconclusive: -62.1%
20,Cc1noc(C)c1NC(=O)Nc1cccc2c1O[C@H](CN(C)S(=O)(=O)c1ccccc1)[C@@H](C)CN([C@H](C)CO)C2=O,inconclusive: -61.1%
21,COc1cccc(OC)c1C(=O)Nc1ccc([N+](=O)[O-])cn1,inactive: 0.912%
22,OC(COC(c1ccc(Cl)cc1)c1ccc(Cl)cc1)CN1CCc2ccccc2C1 (stereo not given),active: -70.7%

row,Structure (SMILES),activity change
1,CC(=O)Nc1ccc(Oc2cc(NC(C)=O)cc([N+](=O)[O-])c2)cc1,inactive: -1.53%
2,N=c1c(C(=O)NC2CCCCC2)cc2c(=O)n3ccccc3nc2n1CCc1ccccc1,inconclusive: -53%
3,Cc1ccc(F)c(NC(=O)c2c(-c3ccccc3)noc2C)c1,inconclusive: -57.3%
4,COc1ccc(Cn2nnnc2C(c2cccs2)N2CCN(c3ccc([N+](=O)[O-])cc3)CC2)cc1 (stereo not given),inconclusive: -55.6%
5,O=C(c1ccc(COCC(F)(F)F)o1)N1CCCC1,inconclusive: -57.2%
6,O=C(NCCc1ccccc1)C1CC(=O)N(C2CCCCC2)C1 (stereo not given),inconclusive: -61%
7,O=C(NC1CC1)c1nc(Cn2cc([N+](=O)[O-])cn2)no1,active: -73.2%
8,COC(=O)c1c(NC(=O)CN2C(=O)C(=O)N(CC(C)C)C2=O)sc2c1CCCCC2,inconclusive: -51.5%
9,CCCCn1c(N)c(N(CCOC)C(=O)c2cc(-c3ccccc3Cl)nc3ccccc23)c(=O)[nH]c1=O,inactive: 0.684%
10,CCN1CCc2nc3ccccc3c(C(=O)Nc3ccc(F)cc3)c2C1,inconclusive: -69.1%
11,CC1CCCN(CCOCCOc2ccc(Cl)cc2Br)C1 (stereo not given),inconclusive: -55.9%
12,C=CCN=C1CC(C)(C)C(C(=O)OC)C(O)=C1C(=O)CCC (stereo not given),inactive: 0.399%
13,CCn1ncc(CN2CCC(C(=O)Nc3cccc(-c4cccc(F)c4)c3)CC2)c1C,active: -117%
14,O=C(c1ccco1)N(CCC(c1ccccc1)c1ccco1)Cc1ccccc1 (stereo not given),inactive: 46.1%
15,CCCCCCC(=O)Nc1c2c(nc3ccccc13)N(C)CC2,active: -101%
16,COc1ccc(C=C(C#N)c2ccc(OC)cc2)cc1,inactive: -10.1%
17,CC(C)(C)OC(=O)C[C@@H]1C/C=C\C[C@H](CC(=O)N(CCO)Cc2ccccc2)C(=O)N[C@@H](Cc2ccccc2)COC1=O,inconclusive: -58.7%
18,O=C(c1ccco1)N1CCN(c2ncnc3scc(-c4ccc(Cl)cc4)c23)CC1,inconclusive: -55.4%
19,CN1CCN(C(=O)c2ccc(-c3ccc(Br)cc3)o2)CC1,inconclusive: -54.3%
